Measured data: PubChem BioAssay AID493246 (Drosophila RNAi Screening Center, 2011)

Test: 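Identify essential fly genes by loss of cell viability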 (primary screen)
Cells: Drosophila Kc and S2R+ cells
Knock-down reagent: long dsRNA against Drosophila genes
Measured: 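Raw, unnormalised count of remaining cells in each well; per-plate z-scores of cell number underlie the calls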
Direction: Kc cell number and S2R+ cell number: higher = more cells remaining
Active means: 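Counted as a hit if cell number falls by a z-score of at least 3 within its plate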
The deposit covers about 21,000 reagents; this is an unselected part of those that have a named target and a result. Of all reagents, 429 (2%) were called active. 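Values are raw and not normalised between plates; calls rest on per-plate z-scores that were not deposited.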 Entries without a mark were called inactive. Names joined by + are all predicted targets of the reagent. Not stated in the record: the amount of reagent, the time to read-out.

| Gene | amplicon | Kc cell number, rep 1 | Kc cell number, rep 2 | S2R+ cell number, rep 1 | S2R+ cell number, rep 2 |
| --- | --- | --- | --- | --- | --- |
| CG7601 (GeneID 43502) | DRSC14131 | 5.64e5 | – | 8.10e5 | – |
| CG12868 (GeneID 36620) | DRSC06207 | 1.71e6 | 1.80e6 | 1.43e6 | 1.59e6 |
| ALiX (GeneID 43330) | DRSC14564 | 5.13e5 | – | 8.03e5 | – |
| CG18682 (retired record) (GeneID 50098) | DRSC15373 | 1.50e6 | 1.60e6 | 1.09e6 | 1.21e6 |
| CG18682 (retired record) (GeneID 50098) | DRSC15374 | 1.49e6 | 1.77e6 | 1.05e6 | 1.19e6 |
| cuff (GeneID 36269) | DRSC06315 | 1.99e6 | 1.79e6 | 1.32e6 | 1.47e6 |
| Prx1 (GeneID 39658) | DRSC10741 | 1.34e6 | 1.46e6 | 1.33e6 | 1.45e6 |
| mtTFB1 + Ccdc56 | DRSC10809 | 1.39e6 | 1.41e6 | 1.20e6 | 1.17e6 |
| Rho1 (GeneID 36775) | DRSC07530 | 1.19e6 | 1.23e6 | 1.16e6 | 1.25e6 |
| CG44325 (GeneID 31831) | DRSC18423 | 1.63e6 | 1.65e6 | 1.17e6 | 1.14e6 |
| MKP-4 (GeneID 32963) | DRSC19567 | 1.74e6 | 1.68e6 | 1.06e6 | 1.20e6 |
| mahj (GeneID 37462) | DRSC04053 | 1.26e6 | 1.37e6 | 9.13e5 | 9.50e5 |
| CG1513 (GeneID 36028) | DRSC05194 | 1.54e6 | 1.60e6 | 1.06e6 | 1.15e6 |
| CG1513 (GeneID 36028) | DRSC06554 | 1.55e6 | 1.53e6 | 1.27e6 | 1.28e6 |
| brv3 (GeneID 31246) | DRSC18657 | 1.46e6 | 1.46e6 | 9.55e5 | 1.05e6 |
| CG11714 (GeneID 3772566) | DRSC09857 | 1.32e6 | 1.39e6 | 1.13e6 | 1.06e6 |
| inaF-A (GeneID 5740676) | DRSC19660 | 1.54e6 | 1.44e6 | 1.07e6 | 1.15e6 |
| aos (GeneID 39833) | DRSC11323 | 1.29e6 | 1.56e6 | 1.37e6 | 1.41e6 |
| CG1663 (GeneID 36012) | DRSC06613 | 1.74e6 | 1.77e6 | 1.35e6 | 1.52e6 |
| CG1941 (GeneID 35718) | DRSC06802 | 1.62e6 | 1.61e6 | 1.30e6 | 1.46e6 |
| CG1504 (GeneID 33028) | DRSC20513 | 1.49e6 | 1.54e6 | 8.56e5 | 9.52e5 |
| sas (GeneID 40861) | DRSC12631 | 1.58e6 | 1.72e6 | 1.29e6 | 1.39e6 |
| Ugt305A1 (GeneID 59217) | DRSC08541 | 1.43e6 | 1.30e6 | 1.05e6 | 1.23e6 |
| Atg8a (GeneID 32001) | DRSC18024 | 1.53e6 | 1.49e6 | 1.02e6 | 1.07e6 |
| corto (GeneID 40616) | DRSC12375 | 1.89e6 | 1.78e6 | 1.42e6 | 1.40e6 |
| CG10183 (GeneID 42782) | DRSC14203 | 1.76e6 | 1.63e6 | 9.80e5 | 1.10e6 |
| CG9498 (GeneID 33885) | DRSC03235 | 1.67e6 | 1.60e6 | 1.20e6 | 1.45e6 |
| Vmat (GeneID 3346192) | DRSC06961 | 1.36e6 | 1.38e6 | 1.12e6 | 1.10e6 |
| Vmat (GeneID 3346192) | DRSC06962 | 1.67e6 | 1.67e6 | 1.22e6 | 1.37e6 |
| Neto (GeneID 32303) | DRSC19503 | 6.85e5 | – | 1.03e6 | – |
| Neto (GeneID 32303) | DRSC19716 | 1.60e6 | 1.61e6 | 1.00e6 | 1.17e6 |
| Neto (GeneID 32303) | DRSC19717 | 1.63e6 | 1.59e6 | 1.12e6 | 1.25e6 |
| CG14275 (GeneID 34144) | DRSC02379 | 1.62e6 | 1.63e6 | 1.18e6 | 1.32e6 |
| CG5665 (GeneID 40243) | DRSC11783 | 1.75e6 | 1.82e6 | 1.44e6 | 1.55e6 |
| CG9445 (GeneID 50147) | DRSC05006 | 1.63e6 | 1.62e6 | 1.27e6 | 1.39e6 |
| CG9578 (GeneID 33018) | DRSC20694 | 1.56e6 | 1.49e6 | 1.07e6 | 1.23e6 |
| CG11634 (GeneID 35434) | DRSC03700 | 1.48e6 | 1.54e6 | 1.30e6 | 3.47e5 |
| CG2604 (GeneID 40623) | DRSC12313 | 1.66e6 | 1.78e6 | 1.30e6 | 1.40e6 |
| Rim (GeneID 42150) | DRSC16224 | 1.48e6 | 1.60e6 | 9.87e5 | 9.91e5 |
| Rim (GeneID 42150) | DRSC16225 | 1.06e6 (active) | 1.17e6 | 6.06e5 | 5.89e5 |
| Rim (GeneID 42150) | DRSC16226 | 1.53e6 | 1.57e6 | 1.24e6 | 1.23e6 |
| Rim (GeneID 42150) | DRSC16227 | 1.49e6 | 1.42e6 | 1.10e6 | 1.24e6 |
| beat-Vb (GeneID 41583) | DRSC12940 | 1.78e6 | 1.88e6 | 1.14e6 | 1.32e6 |
| beat-Vb (GeneID 41583) | DRSC14845 | 1.85e6 | 1.85e6 | 1.21e6 | 1.42e6 |
| bisc (GeneID 37443) | DRSC04083 | 1.33e6 | 1.50e6 | 1.05e6 | 1.14e6 |
| Ccdc114 (GeneID 42024) | DRSC15025 | 1.57e6 | 1.62e6 | 1.00e6 | 1.05e6 |
| Ir7c (GeneID 31692) | DRSC18007 | 1.53e6 | 1.51e6 | 1.05e6 | 1.23e6 |
| thoc7 (GeneID 38033) | DRSC08512 | 1.31e6 | 1.36e6 | 1.23e6 | 1.29e6 |
| CG5254 (GeneID 31020) | DRSC18611 | 1.42e6 | 1.41e6 | 9.75e5 | 1.12e6 |
| luna (GeneID 2768719) | DRSC05253 | 1.52e6 | 1.48e6 | 1.01e6 | 1.11e6 |
| luna (GeneID 2768719) | DRSC06663 | 8.39e5 (active) | 8.77e5 | 5.60e5 | 6.72e5 |
| luna (GeneID 2768719) | DRSC07336 | 1.47e6 | 1.45e6 | 1.05e6 | 1.21e6 |
| rad (retired record) (GeneID 32251) | DRSC19687 | 1.60e6 | 1.60e6 | 1.01e6 | 1.17e6 |
| SelT (GeneID 33725) | DRSC02732 | 1.19e6 | 1.34e6 | 6.14e5 | 9.52e5 |
| CG8813 (GeneID 33490) | DRSC00706 | 1.28e6 | 1.30e6 | 8.62e5 | 8.95e5 |
| alph (GeneID 43481) | DRSC15398 | 5.05e5 | – | 6.77e5 | – |
| nom (GeneID 41038) | DRSC16389 | 1.45e6 | 1.58e6 | 1.27e6 | 1.30e6 |
| dally (GeneID 39013) | DRSC08954 | 1.36e6 | 1.45e6 | 1.12e6 | 1.28e6 |
| dally (GeneID 39013) | DRSC11338 | 1.22e6 | 1.25e6 | 1.27e6 | 1.15e6 |

Not a retest: 7 of the entries above.
| Gene | amplicon | Kc cell number, rep 1 | Kc cell number, rep 2 | S2R+ cell number, rep 1 | S2R+ cell number, rep 2 |
| --- | --- | --- | --- | --- | --- |
| Rho1 (GeneID 36775) | DRSC07530 | 1.19e6 | 1.23e6 | 1.16e6 | 1.25e6 |
| CG44325 (GeneID 31831) | DRSC18423 | 1.63e6 | 1.65e6 | 1.17e6 | 1.14e6 |
| MKP-4 (GeneID 32963) | DRSC19567 | 1.74e6 | 1.68e6 | 1.06e6 | 1.20e6 |
| mahj (GeneID 37462) | DRSC04053 | 1.26e6 | 1.37e6 | 9.13e5 | 9.50e5 |
| CG1513 (GeneID 36028) | DRSC05194 | 1.54e6 | 1.60e6 | 1.06e6 | 1.15e6 |
| CG1513 (GeneID 36028) | DRSC06554 | 1.55e6 | 1.53e6 | 1.27e6 | 1.28e6 |
| brv3 (GeneID 31246) | DRSC18657 | 1.46e6 | 1.46e6 | 9.55e5 | 1.05e6 |
